The list is a part of this screen's results and no random one: it is rich in T/C values a quarter to a half above the control, in often repeated tests (any T/C) and in doses without a T/C. Further doses and runs are listed elsewhere. T/C is the treated group as % of the vehicle group. Some doses have a count of surviving animals in place of a T/C: the source files T/C as zero there, which appears to mark a toxic dose or a test without result, not a measured value. Some doses without a T/C left all or most animals alive at the check, yet need not have been tolerated: the source hardly ever lists a survival T/C far under the control, and the zero likely stands for such cases as well. Counts of survivors are from the toxicity check (mostly the fifth day) where no day follows; animals may have died later. Schedule codes are those of the source, read here as Q, the interval in days (D) or hours (H), X, the number of doses. Some doses were run more than once; their values stand side by side, smallest first. Marks such as (2×) give the number of equal values in this list. Where survival is the endpoint, this PubChem deposit counts one and a half times the control or more as active, and values a quarter to a half above the control carry no call in these data; other NCI protocols may use other cut-offs. Some T/C values carry the count of animals alive at the toxicity check (mostly the fifth day); where none is given, no animal had died by that day.
Tested on: P388 leukemia ip, CD2F1 mice, survival T/C
Assay: NCI In Vivo Anticancer Drug Screen. Data for tumor model P388 Leukemia (intraperitoneal) in CD2F1 (CDF1) mice
Conditions: T/C endpoint: median survival time, higher T/C = longer survival

## CC[C@]1(O)C[C@H]2CN(CCc3c([nH]c4ccccc34)[C@@](C(=O)OC)(c3cc4c(cc3OC)N(C=O)[C@H]3[C@@](O)(C(=O)OC)[C@H](OC(C)=O)[C@]5(CC)C=CCN6CC[C@]43[C@@H]65)C2)C1
dose: 1.0 mg/kg/injection, schedule: Q04DX003 (ip), vehicle: saline, evaluated on day 40
  T/C: 197 % of control
dose: 1.0 mg/kg/injection, schedule: Q04DX003 (ip), vehicle: saline, evaluated on day 45
  T/C: 170, 183, 186, 196 (2×), 197, 202, 206, 210, 213 (2×), 214, 220 (2×), 221, 231, 242, 253 % of control
dose: 1.0 mg/kg/injection, schedule: Q04DX003 (ip), vehicle: saline, evaluated on day 56
  T/C: 186 % of control
dose: 1.0 mg/kg/injection, schedule: Q04DX003 (ip), vehicle: saline, evaluated on day 60
  T/C: 157, 175, 191, 193, 205, 207, 212, 213 (2×), 216, 217, 218, 219, 221, 225, 227, 229, 231 (2×), 232, 234, 236, 245 % of control
dose: 1.2 mg/kg/injection, schedule: Q04DX003 (ip), vehicle: saline, evaluated on day 6
  T/C: 144 % of control
dose: 1.2 mg/kg/injection, schedule: Q04DX003 (ip), vehicle: saline, evaluated on day 30
  T/C: 198 [9 of 10 alive] and 204 % of control
dose: 1.2 mg/kg/injection, schedule: Q04DX003 (ip), vehicle: saline, evaluated on day 45
  T/C: 97, 192, 199, 216 % of control
dose: 1.3 mg/kg/injection, schedule: Q01DX001 (ip), vehicle: saline
  T/C: 136 % of control
dose: 1.3 mg/kg/injection, schedule: Q04DX003 (ip), vehicle: saline
  T/C: 161 (2×), 166 [8 of 9 alive], 178, 198, 203, 206, 228 % of control
dose: 1.5 mg/kg/injection, schedule: Q04DX003 (ip), vehicle: saline, evaluated on day 5
  T/C: 192, 208, 215, 236, 238 % of control
dose: 1.5 mg/kg/injection, schedule: Q04DX003 (ip), vehicle: saline, evaluated on day 9
  T/C: 144 and 178 % of control
dose: 1.5 mg/kg/injection, schedule: Q04DX003 (ip), vehicle: saline, evaluated on day 20
  T/C: 192 % of control
dose: 1.5 mg/kg/injection, schedule: Q04DX003 (ip), vehicle: saline, evaluated on day 23
  T/C: 199 % of control
dose: 1.5 mg/kg/injection, schedule: Q04DX003 (ip), vehicle: saline, evaluated on day 29
  T/C: 237 % of control
dose: 1.5 mg/kg/injection, schedule: Q04DX003 (ip), vehicle: saline, evaluated on day 30, list 1 of 2
  T/C: 87, 113, 124, 127, 132, 153, 160, 169, 175, 181, 183, 189, 196, 198, 204, 205, 207, 208, 212, 215, 216, 219, 221, 224, 226, 228 (2×), 231, 235 (2×), 240, 268 % of control
dose: 1.5 mg/kg/injection, schedule: Q04DX003 (ip), vehicle: saline, evaluated on day 30, list 2 of 2
  T/C: 107, 118, 126, 127, 141, 155, 169, 171, 178, 183, 187, 192, 197, 200, 204, 205, 207, 211, 213, 216, 218, 221 (2×), 224, 227, 228, 230, 235 (2×), 236 [9 of 10 alive], 265, 282 % of control
dose: 1.5 mg/kg/injection, schedule: Q04DX003 (ip), vehicle: saline, evaluated on day 40
  T/C: 206 % of control
dose: 1.5 mg/kg/injection, schedule: Q04DX003 (ip), vehicle: saline, evaluated on day 45
  T/C: 201, 204, 207, 211, 212 (2×), 216 (2×), 218, 219, 221, 222, 226 (2×), 231 [9 of 10 alive], 234, 240, 258 % of control (2×)
dose: 1.5 mg/kg/injection, schedule: Q04DX003 (ip), vehicle: saline, evaluated on day 56
  T/C: 212 % of control
dose: 1.5 mg/kg/injection, schedule: Q04DX003 (ip), vehicle: saline, evaluated on day 60
  T/C: 124, 178, 215, 216, 218, 222, 223, 233, 235 (2×), 236, 237, 239, 241 (2×), 241 [9 of 10 alive], 242, 245, 257, 261, 297, 380 % of control
dose: 1.6 mg/kg/injection, schedule: Q01DX009 (ip), vehicle: saline
  survivor count: 2 of 6 and 3 of 6
dose: 1.6 mg/kg/injection, schedule: Q04DX003 (ip), vehicle: water
  survivor count: 6 of 6
dose: 2.0 mg/kg/injection, schedule: Q01DX001 (ip), vehicle: saline, evaluated on day 5
  T/C: 130, 135, 150, 169, 172, 173, 174 (2×), 178 % of control
dose: 2.0 mg/kg/injection, schedule: Q01DX001 (ip), vehicle: saline, evaluated on day 30
  T/C: 140, 150, 170 [4 of 5 alive], 175 % of control
dose: 2.0 mg/kg/injection, schedule: Q01DX001 (ip), vehicle: saline, evaluated on day 45
  T/C: 167 % of control
dose: 2.0 mg/kg/injection, schedule: Q01DX001 (ip), vehicle: saline
  survivor count: 1 of 6, 2 of 6, 3 of 6, 4 of 6 (2×), 6 of 6
dose: 2.0 mg/kg/injection, schedule: Q01DX001 (ip), vehicle: water, evaluated on day 3
  T/C: 86 % of control
dose: 2.0 mg/kg/injection, schedule: Q01DX001 (ip), vehicle: water, evaluated on day 5
  T/C: 154, 163, 167, 168 [4 of 7 alive], 170 [8 of 9 alive], 177, 178 % of control
dose: 2.0 mg/kg/injection, schedule: Q01DX001 (ip), vehicle: water, evaluated on day 6
  T/C: 145, 148, 158 % of control
dose: 2.0 mg/kg/injection, schedule: Q01DX001 (ip), vehicle: water, evaluated on day 10
  T/C: 97 % of control
dose: 2.0 mg/kg/injection, schedule: Q01DX001 (ip), vehicle: water, evaluated on day 20
  T/C: 155 % of control [5 of 6 alive]
dose: 2.0 mg/kg/injection, schedule: Q01DX001 (ip), vehicle: water, evaluated on day 30
  T/C: 107 [5 of 6 alive], 133, 148 [4 of 6 alive], 150, 152, 153, 153 [2 of 3 alive], 153 [4 of 6 alive], 157, 157 [5 of 6 alive], 160, 161 [4 of 6 alive], 161 [5 of 6 alive], 162, 163 (2×), 164, 164 [5 of 6 alive], 167 [5 of 6 alive], 168, 169, 171 (2×), 174, 174 [4 of 6 alive], 176, 177 [5 of 6 alive], 183, 183 [2 of 3 alive], 184 [4 of 6 alive], 197 % of control
dose: 2.0 mg/kg/injection, schedule: Q01DX001 (ip), vehicle: water, evaluated on day 35
  T/C: 145 % of control
dose: 2.0 mg/kg/injection, schedule: Q01DX001 (ip), vehicle: water
  survivor count: 1 of 3, 3 of 6, 4 of 6
dose: 2.0 mg/kg/injection, schedule: Q01DX009 (ip), vehicle: water
  survivor count: 3 of 6
dose: 2.0 mg/kg/injection, schedule: Q04DX003 (ip), vehicle: saline, evaluated on day 5
  T/C: 98, 125, 175, 176, 194, 200, 216, 216 [8 of 9 alive], 238 % of control
dose: 2.0 mg/kg/injection, schedule: Q04DX003 (ip), vehicle: saline, evaluated on day 9
  T/C: 127 [4 of 6 alive], 171, 190, 193, 209 % of control
dose: 2.0 mg/kg/injection, schedule: Q04DX003 (ip), vehicle: saline, evaluated on day 20
  T/C: 192 % of control
dose: 2.0 mg/kg/injection, schedule: Q04DX003 (ip), vehicle: saline, evaluated on day 23
  T/C: 203 % of control
dose: 2.0 mg/kg/injection, schedule: Q04DX003 (ip), vehicle: saline, evaluated on day 29
  T/C: 278 % of control
dose: 2.0 mg/kg/injection, schedule: Q04DX003 (ip), vehicle: saline, evaluated on day 30, list 1 of 2
  T/C: 87, 94, 98, 108 (2×), 112, 115, 117, 122, 153, 191, 195 [5 of 6 alive], 198, 202, 205, 211, 212, 216, 219, 222, 226, 231 (2×), 235, 236, 238, 239, 242, 244, 250, 251, 285 % of control
dose: 2.0 mg/kg/injection, schedule: Q04DX003 (ip), vehicle: saline, evaluated on day 30, list 2 of 2
  T/C: 89, 96, 103, 108, 109, 113, 117, 120, 127, 169, 192, 198, 200, 203, 209 [5 of 6 alive], 212, 214, 218, 222, 225, 227, 231, 234, 235, 237, 238, 240, 243, 248, 250, 257, 288 % of control
dose: 2.0 mg/kg/injection, schedule: Q04DX003 (ip), vehicle: saline, evaluated on day 35
  T/C: 119 % of control
dose: 2.0 mg/kg/injection, schedule: Q04DX003 (ip), vehicle: saline, evaluated on day 40
  T/C: 240 % of control
dose: 2.0 mg/kg/injection, schedule: Q04DX003 (ip), vehicle: saline, evaluated on day 45
  T/C: 95, 99 [5 of 6 alive], 119, 122, 142, 145 [7 of 8 alive], 183, 213, 216, 220, 225 (3×), 227, 237, 239, 241 [9 of 10 alive], 247, 248, 255, 257, 260 (2×), 262 % of control
dose: 2.0 mg/kg/injection, schedule: Q04DX003 (ip), vehicle: saline, evaluated on day 56
  T/C: 216 % of control
dose: 2.0 mg/kg/injection, schedule: Q04DX003 (ip), vehicle: saline, evaluated on day 60
  T/C: 110 [9 of 10 alive], 116 [9 of 10 alive], 119, 130 [9 of 10 alive], 166, 175, 214, 234, 235, 235 [9 of 10 alive], 236, 239, 242, 245, 248, 252, 274, 530 % of control
dose: 2.0 mg/kg/injection, schedule: Q04DX003 (ip), vehicle: saline
  survivor count: 6 of 10, 5 of 6, 6 of 6 (2×)
